Results as given in patent US20080318943A1, “Compounds and Uses Thereof - 848” (ASTRAZENECA AB, priority 2007, published 2008).
For at least one compound, name, drawing or mass did not settle the structure.

Sequences of proteins named here, by UniProt entry; tags and fusion partners are left off. Residues count along the entry.
UniProt P14867, 28-456: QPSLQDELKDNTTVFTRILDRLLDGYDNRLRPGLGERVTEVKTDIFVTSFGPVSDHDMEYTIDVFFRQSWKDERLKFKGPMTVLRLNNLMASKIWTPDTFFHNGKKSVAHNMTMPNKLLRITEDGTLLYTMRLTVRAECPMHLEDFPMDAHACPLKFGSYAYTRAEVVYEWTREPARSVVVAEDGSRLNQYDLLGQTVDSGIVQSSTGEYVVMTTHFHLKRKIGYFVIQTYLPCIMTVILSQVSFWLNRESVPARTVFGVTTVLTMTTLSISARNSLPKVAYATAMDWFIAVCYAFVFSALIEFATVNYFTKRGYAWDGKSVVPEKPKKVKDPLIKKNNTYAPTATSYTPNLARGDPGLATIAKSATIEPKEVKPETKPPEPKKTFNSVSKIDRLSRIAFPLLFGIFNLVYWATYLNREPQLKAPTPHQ
UniProt P18507, 40-475: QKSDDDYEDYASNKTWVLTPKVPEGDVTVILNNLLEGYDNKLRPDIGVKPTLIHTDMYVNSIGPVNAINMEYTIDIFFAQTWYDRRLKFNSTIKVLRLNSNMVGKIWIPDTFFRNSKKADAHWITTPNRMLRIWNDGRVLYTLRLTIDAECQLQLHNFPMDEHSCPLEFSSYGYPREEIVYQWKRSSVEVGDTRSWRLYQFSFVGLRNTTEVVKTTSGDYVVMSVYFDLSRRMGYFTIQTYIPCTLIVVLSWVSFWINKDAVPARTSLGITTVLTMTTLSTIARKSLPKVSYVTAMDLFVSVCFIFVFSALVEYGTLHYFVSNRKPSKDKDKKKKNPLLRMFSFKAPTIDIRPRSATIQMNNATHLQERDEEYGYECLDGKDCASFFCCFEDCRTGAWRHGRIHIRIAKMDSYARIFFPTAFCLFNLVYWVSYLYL
UniProt P47869, 29-451: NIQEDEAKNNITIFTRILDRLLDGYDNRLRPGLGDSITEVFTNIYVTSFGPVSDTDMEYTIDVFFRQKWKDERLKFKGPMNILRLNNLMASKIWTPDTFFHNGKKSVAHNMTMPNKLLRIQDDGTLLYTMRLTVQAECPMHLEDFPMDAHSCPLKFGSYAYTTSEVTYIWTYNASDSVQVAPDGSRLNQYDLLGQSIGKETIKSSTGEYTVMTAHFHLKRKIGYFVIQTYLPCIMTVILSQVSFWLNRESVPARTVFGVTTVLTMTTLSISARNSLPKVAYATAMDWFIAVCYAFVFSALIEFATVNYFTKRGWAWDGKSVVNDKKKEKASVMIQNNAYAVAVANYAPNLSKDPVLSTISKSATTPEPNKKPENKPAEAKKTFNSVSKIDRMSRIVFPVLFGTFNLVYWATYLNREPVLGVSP

Columns and labels:
GABAA receptor α1β2γ2 = biological target: T1, GABAA receptor α1β2γ2 (Homo sapiens, UniProt P14867+P18507); experiment: Two-electrode voltage-clamp potentiation of GABA EC10 current in Xenopus oocytes, GABAA1; type: cell-based; settings: percentage potentiation of GABA EC10 current divided by that of diazepam
T1 construct: expressed in transfected cells; host or cells: Xenopus laevis oocytes injected with cRNA
Protocol: (§1) GABAA receptors were heterologously expressed in Xenopus oocytes by injecting cRNA corresponding to human α1, α2, α3, α5, β2, P3 and γ2 subunits of the GABAA receptor genes. The specific subunit combinations (subtypes) were as follows: α1β2γ2, α2β3γ2, α3β3γ2, and α5β3γ2. The EC10 of GABA is approximated for each cell. Stability of GABA-mediated (EC10) current is established. Modulatory effect of test compound is determined and compared across subtypes. […] Thus, the assay can characterize modulatory effects and determine subtype selectivity of test compounds on major subtypes of GABAA receptors.
(§2) Xenopus laevis frogs (Xenopus I, Kalamazoo, Mich.) were anesthetized using 0.15% tricaine. Surgically removed ovarian lobes were teased out in OR2 solution (82 NaCl, 2.5 KCl, 5 HEPES, 1.5 NaH2PO4, 1 MgCl2, 0.1 EDTA, in mM, pH 7.4). The oocytes were defolliculated by incubation in 25 mL OR2 containing 0.2% collagenase 1A (SIGMA) two times for about 60 minutes on a platform shaker and stored in Leibovitz's L-15 medium. Oocytes were injected the following day in 0.5× Leibovitz's L-15 medium containing […] gentamycin, 10 units/ml penicillin, and […] streptomycin.
(§3) Capped cRNAs from the linearized vectors containing human α1, β2 and γ2 subunits of the GABAA receptor genes were mixed in ratio of […]. Oocytes were injected with 25-50 nL of mixed RNA with an appx molar ratio for α1, β2, and γ2 as 1:1:10. Oocyte recordings were done 2-10 days after injection. The same methods apply to subtypes derived from α2β3γ2, α3β3γ2, and α5β3γ2, except for 1:1:1 ratio was used for α, β, and γ subunits.
(§4) All measurements were done in a medium containing ND-96 (96 NaCl, 2 KCl, 1.8 CaCl2.2H2O, 1 MgCl2.6H2O, 5 HEPES, in mM, pH 7.5). Two-electrode voltage-clamp recording was carried out using OpusXpress amplifier (Axon Instruments, Foster City, Calif.), which allows simultaneous recording from 8 oocytes. Oocytes were impaled with two electrodes of 1-2 MΩ tip resistance when filled with 3M KCl. Recordings were begun when membrane potential became stable at potentials negative to −50-−60 mV. Membrane potential was held at −60 mV. […] The concentration of GABA corresponded to the EC10 value calculated for each oocyte. The modulator pulses started 30 s before the GABA pulse so as to allow preincubation with the modulator. A set of 3 pulses with just GABA without modulator was given prior to the modulator-containing pulses to define the baseline GABA response. Two oocytes per each experiment were dedicated to observe the effect of diazepam on GABA response to ensure the presence of γ2 subunit in the GABAA pentameric complex, which imparts diazepam sensitivity to the complex.
(§5) Current amplitude (i) was measured from baseline to peak using Clampfit (Axon Inst., Foster City, Calif.). Potentiation was calculated as percent change from the baseline GABA current flux 100×(imod/icontrol)−1) where imod=current mediated by modulator+GABA and icontrol=current mediated by GABA alone. […] Similarly, a value of −50% potentiation means the presence of modulator caused a 50% decrease in the control current. Various other data shown here were fitted and plotted using GraphPad Prism (GraphPad Software, Inc. San Diego, Calif.). The percentage potentiation was converted to relative potentiation by dividing it with percentage potentiation value obtained from the same assay with diazepam as a control.

GABAA receptor α2β3γ2 = biological target: T2, GABAA receptor α2β3γ2 (Homo sapiens, UniProt P18507+P47869); experiment: Two-electrode voltage-clamp potentiation of GABA EC10 current in Xenopus oocytes, GABAA2; type: cell-based; settings: percentage potentiation of GABA EC10 current divided by that of diazepam
T2 construct: expressed in transfected cells; host or cells: Xenopus laevis oocytes injected with cRNA
Protocol: as §1, §2, §3, §4, §5

| Relative Potentiation for GABAA1 (GABAA receptor α1β2γ2) | Relative Potentiation for GABAA2 (GABAA receptor α2β3γ2) | SMILES |
| --- | --- | --- |
| 0.058 | 0.19 | COc1ccc(-c2c(F)ccc3c(N)c4c(nc23)CN(C2CC2)C4=O)c(OC)c1 [Example 28, 9-Amino-2-cyclopropyl-5-(2,4-dimethoxyphenyl)-6-fluoro-2,3-dihydropyrrolo[3,4-b]quinolin-1-one] |
| 0.056 | 0.25 | CCN1Cc2nc3c(-c4cnccc4OC)c(F)ccc3c(N)c2C1=O [Example 36, 9-Amino-2-ethyl-6-fluoro-5-(4-methoxypyridin-3-yl)-2,3-dihydropyrrolo[3,4-b]quinolin-1-one] |
| 0.023 | 0.27 | COc1ccc(-c2c(F)ccc3c(N)c4c(nc23)CN(C2CCC2)C4=O)c(OC)n1 [Example 52, 9-Amino-2-cyclobutyl-5-(2,6-dimethoxypyridin-3-yl)-6-fluoro-2,3-dihydropyrrolo[3,4-b]quinolin-1-one] |
| −0.051 | 0.25 | COc1ccc(-c2c(F)ccc3c(N)c4c(nc23)CN(C2CC2)C4=O)c(OC)n1 [Example 54, 9-Amino-2-cyclopropyl-5-(2,6-dimethoxypyridin-3-yl)-6-fluoro-2,3-dihydropyrrolo[3,4-b]quinolin-1-one] |
| 0.06 | 0.27 | CCCN1Cc2nc3c(-c4c(F)cccc4OC)c(F)ccc3c(N)c2C1=O [Example 55, 9-Amino-6-fluoro-5-(2-fluoro-6-methoxyphenyl)-2-propyl-2,3-dihydropyrrolo[3,4-b]quinolin-1-one] |
